Drawing on patent US20200239578A1, this text covers binding for 1 molecule.

Results are given in words; binding and its absence hold for the method and conditions named. Some entries that bind do so weakly or less than the wild type.

The assay has as its target T1, rat BTLA on splenocytes of Sprague Dawley rats (rat) (UniProt Q6PNM1).
T1 sequence (looked up): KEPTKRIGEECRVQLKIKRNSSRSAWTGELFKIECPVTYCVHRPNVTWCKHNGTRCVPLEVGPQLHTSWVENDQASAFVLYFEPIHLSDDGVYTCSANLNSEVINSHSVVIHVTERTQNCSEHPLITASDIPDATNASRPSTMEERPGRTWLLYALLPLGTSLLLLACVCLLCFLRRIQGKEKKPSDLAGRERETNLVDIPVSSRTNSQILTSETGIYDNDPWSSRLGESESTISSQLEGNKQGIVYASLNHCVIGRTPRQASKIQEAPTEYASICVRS
As to the kind of experiment: flow cytometry (FACS) on primary cells. (A flow cytometer gives signals particle by particle.)

B1: Antibody 22B3 (antibody, human IgG4 S228P, kappa, F234A L235A, V domains shown)
VH: QVQLVQSGAEVKKPGASVKVSCKASGFSLSSYGVSWVRQAPGQGLEWMGAISYDGITYYASWAKSRVTMTRDTSTSTVYMELSSLRSEDTAVYYCARGDYYDDYVYVYALDIWGQGTLVTVSS
VL: EIVLTQSPGTLSLSPGERATLSCQASQSISTALAWYQQKPGQAPRLLIYAASTLASGIPDRFSGSGSGTDFTLTISRLEPEDFAVYYCQQGYSSSNLDNVFGGGTKVEIKR
On to B1, for which the binding result is “binds”.
